Source: publication PMC7819943, “Rice protein-binding microarrays: a tool to detect cis-acting elements near promoter regions in rice”
This is one part of the list.

Protein sequences, listed by entry. Tags and fused reporters are not part of them.
UniProt Q0JBA9, entry or part of it: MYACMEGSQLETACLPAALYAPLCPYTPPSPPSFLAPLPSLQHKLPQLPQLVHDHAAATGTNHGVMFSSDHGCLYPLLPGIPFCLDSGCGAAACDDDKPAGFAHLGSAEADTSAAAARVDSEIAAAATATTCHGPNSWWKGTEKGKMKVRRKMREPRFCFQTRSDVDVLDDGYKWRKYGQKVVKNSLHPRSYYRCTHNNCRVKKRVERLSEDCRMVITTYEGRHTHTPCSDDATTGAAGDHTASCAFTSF

Target: OsWRKY34 (Oryza sativa, UniProt Q0JBA9 1-250)
Test: protein-binding microarray (RPBM); PBS, 2% BSA, 51.3 ng/ul salmon testes DNA, 50 uM zinc acetate, 200 nM TF, 25 C, 1 h; high values mean tight binding
Conditions: protein: recombinant; tags: N-terminal polyhistidine and DsRed monomer fusion (pET32a); label: CyDye5-dUTP incorporated in the synthesized complementary strand; 3' TTTTT single-stranded linker to array surface; dsDNA, one strand shown
Outline: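 The binding signal for each feature is its fluorescence intensity in arbitrary units. An Axon 4000B scanner was used to read a custom Agilent array that had been made double-stranded with Cy5-dUTP primer extension, blocked with 2% BSA, incubated at 25 °C for 1 h with 200 nM protein in PBS, 2% BSA, salmon testes DNA and 50 µM zinc acetate, and washed. The protein was an N-terminal polyhistidine–DsRed transcription factor fusion from E. coli BL21-CodonPlus, purified on Ni–NTA.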

In order of rising binding signal:
1. TAACAACTTATCCAACTAGTATTACATTGTCTCAACAATTCGGAGTCACCTAGTGCAG  8030 fluorescence intensity (a.u.)
2. TCCTTCCTCCGATTCACACACACTCCTCGCCGTCTTGTTTCGGAGTCACCTAGTGCAG  8030 fluorescence intensity (a.u.)
3. CAGTATCTGGTTGGTTTCCTTTAATCTTCTCTAAATAAACCGGAGTCACCTAGTGCAG  8040 fluorescence intensity (a.u.)
4. TGCTGTGTATAGACGTGTCCCTTTTGTTGGTACACGCCCACGGAGTCACCTAGTGCAG  8040 fluorescence intensity (a.u.)
5. TGTGTGTATGCGTTTATAGGAGTAACTGTGTGTGCGTTTACGGAGTCACCTAGTGCAG  8150 fluorescence intensity (a.u.)
6. TTAACCACAGTGCCGTTCTCTAGCCACCATCTCAGCAGCACGGAGTCACCTAGTGCAG  8220 fluorescence intensity (a.u.)
7. TTCCTTTATCTTGCTTTATCTTGGTGGCCTTTTCTCCCTTCGGAGTCACCTAGTGCAG  8250 fluorescence intensity (a.u.)
8. TTCCCTCTGTTCAGACTATAAGTCGTTTTAATTTTGATTACGGAGTCACCTAGTGCAG  8260 fluorescence intensity (a.u.)
9. AACTCGCTCGCTCTCTCGCTCGCTTGCTTGCACTCTCGCCCGGAGTCACCTAGTGCAG  8260 fluorescence intensity (a.u.)
10. CAGCGACGACGACCACGACGAGATGGGGATTTGGGGCAGGCGGAGTCACCTAGTGCAG  8260 fluorescence intensity (a.u.)
11. CTTGCGCTGTCACCTACCGCCTCGGCTCCGAGAGAGAGGACGGAGTCACCTAGTGCAG  8330 fluorescence intensity (a.u.)
12. GGCGTTAACTTGCTGATGTGTGTTCTTTTTCATTGATTCCCGGAGTCACCTAGTGCAG  8330 fluorescence intensity (a.u.)
13. TATGTCACGTATAAAATTCTAATGCTAGCTAACTACCATACGGAGTCACCTAGTGCAG  8340 fluorescence intensity (a.u.)
14. GTCTCGTCTCCTTCCTCGGCTCGGCATTTTCGCGAAATCCCGGAGTCACCTAGTGCAG  8350 fluorescence intensity (a.u.)
15. TCTTTGTGCATATCGAATTTGACATTACTATAAATTTACTCGGAGTCACCTAGTGCAG  8350 fluorescence intensity (a.u.)
16. CACTCCACTATATATACCCTCGCTCGCGCGCGCGCACTCCCGGAGTCACCTAGTGCAG  8380 fluorescence intensity (a.u.)
17. TACATCGTCCACTTCGACTACTTCCTCTACATCGGCATGTCGGAGTCACCTAGTGCAG  8420 fluorescence intensity (a.u.)
18. ACGCCAGCAAGCCACTAGGGCGCATCCTCTTTTGCTATCACGGAGTCACCTAGTGCAG  8420 fluorescence intensity (a.u.)
19. TCTGCCTTAAAATCTCAATAATCTCTCTCTGTGTGTGTCTCGGAGTCACCTAGTGCAG  8440 fluorescence intensity (a.u.)
20. AGATTTCCCCTTGGTTCGTTGTTCTGTTCTATCCCCTTCTCGGAGTCACCTAGTGCAG  8460 fluorescence intensity (a.u.)
21. TACACTTCCCGTTTCCCTGGGAGGCGGAGGAGGAGGGGAGCGGAGTCACCTAGTGCAG  8510 fluorescence intensity (a.u.)
22. TAGATGTTGGCGTGTTTTTGTCTCGATGTATTATCGTACACGGAGTCACCTAGTGCAG  8520 fluorescence intensity (a.u.)
23. GCCTATTCGCGCCACCCACATCACGCCCCTACTCGAACATCGGAGTCACCTAGTGCAG  8530 fluorescence intensity (a.u.)
24. TCTCTGCTCTTAGTTTACTTCTGTCAGGTTGGAATATAATCGGAGTCACCTAGTGCAG  8540 fluorescence intensity (a.u.)
25. CCCGAGCTTGGATTGATTTTTCTTTTTTCATTTTCCAACGCGGAGTCACCTAGTGCAG  8610 fluorescence intensity (a.u.)
26. CGGCCGCACCTCCCCTCGCCGCCTCGCGCGTCGCAACTTCCGGAGTCACCTAGTGCAG  8620 fluorescence intensity (a.u.)
27. TTCTGGTTTTTGAGTGAATTTAAGTTTGCATTTATTTTTTCGGAGTCACCTAGTGCAG  8630 fluorescence intensity (a.u.)
28. TCCTCCTACCCAAACACCATCTATCCATTATGCACCCATCCGGAGTCACCTAGTGCAG  8650 fluorescence intensity (a.u.)
29. ACTGCTTATGCCATGATCATTGTTTCATTTTCTTAGATTACGGAGTCACCTAGTGCAG  8660 fluorescence intensity (a.u.)
30. CATGGCTTATTTGGTTGCACATCCATTTTTCCTACCATCACGGAGTCACCTAGTGCAG  8740 fluorescence intensity (a.u.)
31. CATATATTTTTTTTACACTACATATTTTCTTCGCGCAATTCGGAGTCACCTAGTGCAG  8870 fluorescence intensity (a.u.)
32. GTATTGCGCACACACGATAGATCACTTTTTCCAGCACACCCGGAGTCACCTAGTGCAG  8910 fluorescence intensity (a.u.)
33. ATCATTAACCGCGTCTTATTATTGTATTTATTTAGTATTACGGAGTCACCTAGTGCAG  8920 fluorescence intensity (a.u.)
34. TCTCTTATCCCTCTTATTTTGTTAATAGATGCTGTCTTCACGGAGTCACCTAGTGCAG  8920 fluorescence intensity (a.u.)
35. GTGTTCATTGCTAGTTGCATTGTGGTTTTCTAGTTAATTACGGAGTCACCTAGTGCAG  9000 fluorescence intensity (a.u.)
36. CTACAATACGGTCAGCATATCTACCACCCGTCCGATATTCCGGAGTCACCTAGTGCAG  9030 fluorescence intensity (a.u.)
37. TGCTAGCTAACCAAGACTCCGACTCTTCTATTAGTACCTACGGAGTCACCTAGTGCAG  9060 fluorescence intensity (a.u.)
38. ACTTTTTTGGTAGCCATCCGTTATCTCGACACAGCTCCGACGGAGTCACCTAGTGCAG  9100 fluorescence intensity (a.u.)
39. AAACCCTAGCTCGCAGTCGCACACCCTCCGGCTGCACAGCCGGAGTCACCTAGTGCAG  9100 fluorescence intensity (a.u.)
40. TCCTTGTGCGCCTGAGTATCCCTTGCTGCCAGATCACTTACGGAGTCACCTAGTGCAG  9120 fluorescence intensity (a.u.)
41. ATACTGATCGATCGTCTAGCTAGCTTCTTCTACCTCGCATCGGAGTCACCTAGTGCAG  9170 fluorescence intensity (a.u.)
42. CTGTCTCTCCTACTGTTCAGCCGTAAGCATCGTGGCCATTCGGAGTCACCTAGTGCAG  9180 fluorescence intensity (a.u.)
43. TTTTTTTTTCTCAATCGCTTGTTGTCCGATTGAATTTTGTCGGAGTCACCTAGTGCAG  9180 fluorescence intensity (a.u.)
44. TTCATGTATTTGCACAATATATTTGGCCGTGTCCTATATTCGGAGTCACCTAGTGCAG  9200 fluorescence intensity (a.u.)
45. GCAGAAAAGCTTTCAACAACCACTTTGGCTTCTTATTCTACGGAGTCACCTAGTGCAG  9200 fluorescence intensity (a.u.)
46. CTATCACCTCCCGCTTCTCCCAGAGCTTTTCGTCCAGATTCGGAGTCACCTAGTGCAG  9200 fluorescence intensity (a.u.)
47. ACCTCCTTTTCATACAGCCGGCGTGGCATTTGTGGGCCCACGGAGTCACCTAGTGCAG  9220 fluorescence intensity (a.u.)
48. ACTACTGTATACGTGTATACTCTACTATCCATCATCGCCGCGGAGTCACCTAGTGCAG  9240 fluorescence intensity (a.u.)
49. GCGGTTCTGCAACTGTTTGCTATCATTTTTGTGCCGAGATCGGAGTCACCTAGTGCAG  9280 fluorescence intensity (a.u.)
50. CTCACAGTTCAGTTCTAACCCACCAATTGCCATGCCCTTTCGGAGTCACCTAGTGCAG  9340 fluorescence intensity (a.u.)
51. AAAGTTATTTGGTTGGTTGTATTGGTTTAGCATGACTAGTCGGAGTCACCTAGTGCAG  9390 fluorescence intensity (a.u.)
52. GCGATGTTCTGCCTCCTCGTGTACATGTGCTTCGGCGACCCGGAGTCACCTAGTGCAG  9400 fluorescence intensity (a.u.)
53. TGTTTATTTGTTTTCTAAATTTTCCTTATATATTTTGTTGCGGAGTCACCTAGTGCAG  9540 fluorescence intensity (a.u.)
54. TTGGTACTATGGTTGCATTCGTTCCGAGCACTCATTTTATCGGAGTCACCTAGTGCAG  9580 fluorescence intensity (a.u.)
55. CCTTTTTGGCACCGCATTACTTTCCTATTTTAGTAAATTTCGGAGTCACCTAGTGCAG  9590 fluorescence intensity (a.u.)
56. TTACAGGTATTAAACATATTTCACCTACGTATCTCTTCGCCGGAGTCACCTAGTGCAG  9620 fluorescence intensity (a.u.)
57. CATTCGCCGCTTCACATCGCCATGGCCCTCAAAAGGTCGACGGAGTCACCTAGTGCAG  9630 fluorescence intensity (a.u.)
58. CTTGTCTCTCTTTCTCTTTCTCTCTCTCTCACCTGTTATTCGGAGTCACCTAGTGCAG  9740 fluorescence intensity (a.u.)
59. GACCCCTGTTTTCGCTTTTCTTTGGGCCCTCCTCTCTCCTCGGAGTCACCTAGTGCAG  9770 fluorescence intensity (a.u.)
60. TTTGGATCTAACGCTCTTTTCATCTTTGACGTTGCCCACGCGGAGTCACCTAGTGCAG  9810 fluorescence intensity (a.u.)
61. CATCCAAATAGGTTCTTTTAGTTCAATTTTGGGGCAGTTTCGGAGTCACCTAGTGCAG  9920 fluorescence intensity (a.u.)
62. CACGCCGTTTTCTGCATGTCACGGCCATCTCGTGCGTGGCCGGAGTCACCTAGTGCAG  9950 fluorescence intensity (a.u.)
63. TTTCCGTGTCCAACGTTTGACTGTCCGTCTTATTAAAAAACGGAGTCACCTAGTGCAG  10000 fluorescence intensity (a.u.)
64. GCCACCATCTCGCGCCACGCCTGCCCGTCGAGGACACCGACGGAGTCACCTAGTGCAG  10100 fluorescence intensity (a.u.)
65. TACTTTTAGGCCTCTCTTCCTTCGTACTCTTGAATGGGCACGGAGTCACCTAGTGCAG  10100 fluorescence intensity (a.u.)
66. TGAATCAACTCACTCTGGTTTTTGGGTCCGGTTTTCCATACGGAGTCACCTAGTGCAG  10200 fluorescence intensity (a.u.)
67. TTTTTATATACCGGTAAATATCCGCTACCGTATTCGTTCCCGGAGTCACCTAGTGCAG  10200 fluorescence intensity (a.u.)
68. GTTCTCTCTGCATCTCTTCTTCGTTCGATTTCTTGGTCCACGGAGTCACCTAGTGCAG  10300 fluorescence intensity (a.u.)
69. AATTCCACATGTCAAATCCGATTATTATTTGCATTACCTTCGGAGTCACCTAGTGCAG  10600 fluorescence intensity (a.u.)
70. ACAAGGGGTCGGTCTATCATGCTGATGCGGTCGACCGCTCCGGAGTCACCTAGTGCAG  10900 fluorescence intensity (a.u.)
71. AGCTCGCACCACACTATCTTTCTTACCCACCCCGACAATTCGGAGTCACCTAGTGCAG  11000 fluorescence intensity (a.u.)
72. AATGTGTCCCGTATCCCGTAGCTAATTAATATGTTTTCACCGGAGTCACCTAGTGCAG  11100 fluorescence intensity (a.u.)
73. CTCCTCCTGCCACGCGTACCTCCTCTTCACTCTCCAGCAGCGGAGTCACCTAGTGCAG  11100 fluorescence intensity (a.u.)
74. CTCTCCGGTCCGTCCCTTCGTTGACTGCCGCTCGGTTTGCCGGAGTCACCTAGTGCAG  11400 fluorescence intensity (a.u.)
75. ACACCCATGGAACTTGTCGCCTCGAGGAGGGGAGGGGAGCCGGAGTCACCTAGTGCAG  11800 fluorescence intensity (a.u.)
76. CAACCCATCTCCGCCGCCACCCCACCGTTTCTCTCCCTTGCGGAGTCACCTAGTGCAG  12000 fluorescence intensity (a.u.)
77. GTTTTTCTCTTTTTTTTGCTTGATGATTTCCTTAGCTGATCGGAGTCACCTAGTGCAG  12900 fluorescence intensity (a.u.)
78. GCCCAACTCGCGCCTCCTTCTCCGGTCGTCCTCCCTCCGCCGGAGTCACCTAGTGCAG  13100 fluorescence intensity (a.u.)
79. TTGGGAGGGATGGGGCGGTGGTTAGGGGATGAGCGGAGGACGGAGTCACCTAGTGCAG  13200 fluorescence intensity (a.u.)
80. GCCACCTTTTGTTCCGCAACCGCAATGATTTCTTCTTCTTCGGAGTCACCTAGTGCAG  14800 fluorescence intensity (a.u.)
81. GTTAAATTCGAGGGGTTTCTTGTAATTTCGGGGTGGATAACGGAGTCACCTAGTGCAG  16500 fluorescence intensity (a.u.)
82. CTCGAGCGGCGGTGGGGATGGGGATGGGGCGGCGGCGACGCGGAGTCACCTAGTGCAG  17000 fluorescence intensity (a.u.)
83. TTCACTTTCACCTCGCCGTCTTGGTTGTCTTGCCGTCTTTCGGAGTCACCTAGTGCAG  20200 fluorescence intensity (a.u.)
84. TTATCACAGATTCACAGTCCTTTGCCTTCATAAACACCTCCGGAGTCACCTAGTGCAG  65500 fluorescence intensity (a.u.)
